{"source": "the supplement of paper PMC9135407", "system": "primary human hepatic stellate cells (donor 1)", "assay": "percent Bodipy-positive cells; higher = more lipid droplet accumulation", "settings": "48 h", "method": "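Primary lipid accumulation screen in primary human hepatic stellate cell myofibroblasts (donor 1, passage 8) in 384-well plates. 100 nL of library compound was pin-transferred into 30 µL medium in duplicate, and cells were treated for 48 h. The 'Scaled' score combines distance from plate baseline, toxicity and reproducibility penalties, and is normalised to nortriptyline (positive) and DMSO (negative) controls on each plate. A hit is defined as scaled >0.85 or among the top 3 wells per plate.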", "key": {"[1]": {"settings": "library stock concentration: 3.33 mM"}, "[2]": {"settings": "library stock concentration: 10 mM"}, "[3]": {"settings": "library stock concentration: 1 mM"}, "[4]": {"settings": "library stock concentration: 400 uM"}, "[5]": {"settings": "library stock concentration: 2 mM"}}, "note": "“And” between values parts separate entries of the source, which are not always exact repeats. Equal entries are not always repeated. Structures can show the parent of a compound that is named as a salt. ± gives the standard deviation of the averaged measurements. The list shows a part of the results. Baselines shift from plate to plate; read single values as rough.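 Primary human stellate myofibroblasts activated in culture; inactivation shown by regained lipid droplets. Readout: fraction of Hoechst-counted cells exceeding a per-plate Bodipy threshold, duplicate wells, each plate with DMSO negative and nortriptyline positive controls. Hits: control-normalized score beyond the plate's top-tenth-percentile nortriptyline wells, or among its three best wells. Final well concentrations unstated.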", "data": [{"smiles": "NCCNc1ncc(C(N)=O)c(Nc2cccc(C(F)(F)F)c2)n1", "note": "[Syk Inhibitor II]", "values": [{"measurement": "percent Bodipy-positive cells", "setting": "[1]", "value": "65.1 ± 1.1", "unit": "%"}]}, {"smiles": "CC(C)N(CCC(=O)c1ccc2ccccc2c1)Cc1ccccc1.Cl", "values": [{"measurement": "percent Bodipy-positive cells", "setting": "[2]", "value": "90.6 ± 11", "unit": "%"}]}, {"smiles": "CC(NC(=O)C(Cc1ccccc1)NC(=O)OCc1ccccc1)C(=O)CF", "note": "(configuration not stated)", "values": [{"measurement": "percent Bodipy-positive cells", "setting": "[1]", "value": "50 ± 15", "unit": "%"}, {"measurement": "percent Bodipy-positive cells", "setting": "[2]", "value": "67.3 ± 6.8", "unit": "%"}]}, {"smiles": "Cc1cccc(C)c1NC(=O)C(C)N", "note": "(configuration not stated) [Tocainide hydrochloride]", "values": [{"measurement": "percent Bodipy-positive cells", "value": "10.7 ± 1", "unit": "%"}, {"measurement": "percent Bodipy-positive cells", "setting": "[2]", "value": "51.8 ± 19", "unit": "%"}]}, {"smiles": "Cc1cccc(C)c1NC(=O)C(C)N", "note": "(configuration not stated)", "values": [{"measurement": "percent Bodipy-positive cells", "setting": "[2]", "value": "13.7 ± 2.5", "unit": "%"}]}, {"smiles": "C=CCc1cccc(/C=N/NC(=O)CN2CCN(Cc3ccccc3)CC2)c1O", "values": [{"measurement": "percent Bodipy-positive cells", "setting": "[3]", "value": "10.1 ± 1.9", "unit": "%"}, {"measurement": "percent Bodipy-positive cells", "setting": "[1]", "value": "17.8 ± 2.8", "unit": "%"}, {"measurement": "percent Bodipy-positive cells", "setting": "[2]", "value": "66.6% and 49.6% and 47.4%"}]}, {"smiles": "O=C(O)C1CCCNC1", "note": "(configuration not stated)", "values": [{"measurement": "percent Bodipy-positive cells", "value": "8.23 ± 1.4", "unit": "%"}, {"measurement": "percent Bodipy-positive cells", "setting": "[2]", "value": "53.9 ± 2", "unit": "%"}]}, {"smiles": "COc1cc([S+](C)[O-])ccc1-c1nc2cccnc2[nH]1", "note": "(configuration not stated) [Sulmazole]", "values": [{"measurement": "percent Bodipy-positive cells", "value": "7.09 ± 3.6", "unit": "%"}]}, {"smiles": "O=C(NC1CCN(CCCCC2(C(=O)NCC(F)(F)F)c3ccccc3-c3ccccc32)CC1)c1ccccc1-c1ccc(C(F)(F)F)cc1", "note": "[Lomitapide]", "values": [{"measurement": "percent Bodipy-positive cells", "setting": "[1]", "value": "94.71 ± 0.55", "unit": "%"}]}, {"smiles": "NC(N)=NC(N)=Nc1cccc(Cl)c1", "note": "[1-(m-Chlorophenyl)-biguanide hydrochloride]", "values": [{"measurement": "percent Bodipy-positive cells", "setting": "[2]", "value": "49.3 ± 9", "unit": "%"}]}, {"smiles": "NC(N)=NC(N)=Nc1cccc(Cl)c1", "note": "[m-Chlorophenylbiguanide hydrochloride]", "values": [{"measurement": "percent Bodipy-positive cells", "setting": "[2]", "value": "9.95 ± 3.3", "unit": "%"}]}, {"smiles": "C[C@H]1O[C@@H](O[C@H]2[C@@H](O)C[C@H](O[C@H]3[C@@H](O)C[C@H](O[C@H]4CC[C@@]5(C)[C@H](CC[C@@H]6[C@@H]5C[C@@H](O)[C@]5(C)[C@@H](C7=CC(=O)OC7)CC[C@]65O)C4)O[C@@H]3C)O[C@@H]2C)C[C@H](O)[C@@H]1O", "note": "[Digoxin]", "values": [{"measurement": "percent Bodipy-positive cells", "value": "90.25 ± 0.78", "unit": "%"}, {"measurement": "percent Bodipy-positive cells", "setting": "[1]", "value": "86.25 ± 0.43", "unit": "%"}, {"measurement": "percent Bodipy-positive cells", "setting": "[2]", "value": "97% and 75.5%"}]}, {"smiles": "C[C@H]1O[C@@H](O[C@H]2[C@@H](O)C[C@H](O[C@H]3[C@@H](O)C[C@H](O[C@H]4CC[C@@]5(C)[C@H](CC[C@@H]6[C@@H]5C[C@@H](O)[C@]5(C)[C@@H](C7=CC(=O)OC7)CC[C@]65O)C4)O[C@@H]3C)O[C@@H]2C)C[C@H](O)[C@@H]1O", "values": [{"measurement": "percent Bodipy-positive cells", "setting": "[2]", "value": "97.8 ± 2.5", "unit": "%"}]}, {"smiles": "CN1CCN(C2=Nc3cc(F)ccc3Cc3ccccc32)CC1", "note": "[Fluperlapine]", "values": [{"measurement": "percent Bodipy-positive cells", "setting": "[2]", "value": "61 ± 16", "unit": "%"}]}, {"smiles": "COc1cc2ncnc(Nc3ccc(NC(=O)c4ccccc4)cc3)c2cc1OC", "note": "[Aurora Kinase Inhibitor II]", "values": [{"measurement": "percent Bodipy-positive cells", "setting": "[1]", "value": "13.2 ± 2.9", "unit": "%"}]}, {"smiles": "O=C(OCC(O)CO)c1ccccc1Nc1ccnc2cc(Cl)ccc12", "note": "(configuration not stated) [Glafenine hydrochloride]", "values": [{"measurement": "percent Bodipy-positive cells", "value": "24.1 ± 5", "unit": "%"}]}, {"smiles": "O=C(OCC(O)CO)c1ccccc1Nc1ccnc2cc(Cl)ccc12", "note": "(configuration not stated) [Glafenine]", "values": [{"measurement": "percent Bodipy-positive cells", "setting": "[2]", "value": "24.8 ± 0.41", "unit": "%"}]}, {"smiles": "COc1cc(N)c(Cl)cc1C(=O)OCCCN1CCCCC1", "values": [{"measurement": "percent Bodipy-positive cells", "setting": "[2]", "value": "17.1 ± 2.9", "unit": "%"}]}, {"smiles": "CC(C(=O)O)c1ccc(-c2ccccc2)c(F)c1", "note": "(configuration not stated) [(?)-Flurbiprofen]", "values": [{"measurement": "percent Bodipy-positive cells", "setting": "[3]", "value": "7.42 ± 1.3", "unit": "%"}]}, {"smiles": "CC(C(=O)O)c1ccc(-c2ccccc2)c(F)c1", "note": "(configuration not stated) [Flurbiprofen]", "values": [{"measurement": "percent Bodipy-positive cells", "value": "9.52 ± 2.6", "unit": "%"}, {"measurement": "percent Bodipy-positive cells", "setting": "[1]", "value": "7.47 ± 3.6", "unit": "%"}]}, {"smiles": "COc1cc2c(N3CCN(C(=O)Nc4ccc(OC(C)C)cc4)CC3)ncnc2cc1OCCCN1CCCCC1", "values": [{"measurement": "percent Bodipy-positive cells", "setting": "[4]", "value": "39.3 ± 17", "unit": "%"}, {"measurement": "percent Bodipy-positive cells", "setting": "[5]", "value": "48.4 ± 9.3", "unit": "%"}, {"measurement": "percent Bodipy-positive cells", "setting": "[2]", "value": "80.2 ± 6.3", "unit": "%"}]}, {"smiles": "COc1cc2c(N3CCN(C(=O)Nc4ccc(OC(C)C)cc4)CC3)ncnc2cc1OCCCN1CCCCC1", "note": "[Tandutinib (MLN518)]", "values": [{"measurement": "percent Bodipy-positive cells", "setting": "[1]", "value": "51.3 ± 4.4", "unit": "%"}, {"measurement": "percent Bodipy-positive cells", "setting": "[2]", "value": "87.5 ± 6", "unit": "%"}]}, {"smiles": "NC(=O)c1cn(Cc2c(F)cccc2F)nn1", "note": "[Rufinamide]", "values": [{"measurement": "percent Bodipy-positive cells", "setting": "[1]", "value": "14.3 ± 7.3", "unit": "%"}]}, {"smiles": "Cc1cc(O)c2c(c1)C(=O)c1cccc(O)c1C2=O", "note": "[Chrysophanic Acid]", "values": [{"measurement": "percent Bodipy-positive cells", "setting": "[1]", "value": "7.07 ± 1.7", "unit": "%"}, {"measurement": "percent Bodipy-positive cells", "setting": "[2]", "value": "16.2 ± 4.7", "unit": "%"}]}, {"smiles": "CCCCCC(=O)OC[C@H](CO)OC(=O)CCCCC", "note": "[1,2-Dihexanoyl-sn-glycerol]", "values": [{"measurement": "percent Bodipy-positive cells", "setting": "[3]", "value": "6.5 ± 2.1", "unit": "%"}]}, {"smiles": "Cc1c(OCC(F)(F)F)ccnc1C[S@@+]([O-])c1nc2ccccc2[nH]1", "note": "[Dexlansoprazole]", "values": [{"measurement": "percent Bodipy-positive cells", "setting": "[1]", "value": "9.53 ± 4.5", "unit": "%"}, {"measurement": "percent Bodipy-positive cells", "setting": "[2]", "value": "30.8 ± 2.2", "unit": "%"}]}, {"smiles": "Cc1c(OCC(F)(F)F)ccnc1C[S@@+]([O-])c1nc2ccccc2[nH]1", "values": [{"measurement": "percent Bodipy-positive cells", "setting": "[2]", "value": "30.7 ± 5.9", "unit": "%"}]}, {"smiles": "O=c1ccc2cc(O)c(O)cc2o1", "note": "[Esculetin]", "values": [{"measurement": "percent Bodipy-positive cells", "value": "8.2 ± 2.2", "unit": "%"}, {"measurement": "percent Bodipy-positive cells", "setting": "[2]", "value": "18.3 ± 2.7", "unit": "%"}]}, {"smiles": "Cc1ccc(C(=O)Nc2cccc(C(F)(F)F)c2)cc1Nc1cncc(C(N)=O)c1", "values": [{"measurement": "percent Bodipy-positive cells", "setting": "library stock concentration: 80 uM", "value": "14.4 ± 8.3", "unit": "%"}, {"measurement": "percent Bodipy-positive cells", "setting": "[4]", "value": "7.48 ± 0.39", "unit": "%"}, {"measurement": "percent Bodipy-positive cells", "setting": "[5]", "value": "13.2 ± 3.8", "unit": "%"}, {"measurement": "percent Bodipy-positive cells", "setting": "[2]", "value": "23.8 ± 3.1", "unit": "%"}]}, {"smiles": "COc1ccc(CCN(C)CCCN2CCc3cc(OC)c(OC)cc3CC2=O)cc1OC", "note": "[Zatebradine hydrochloride]", "values": [{"measurement": "percent Bodipy-positive cells", "setting": "[2]", "value": "6.71 ± 0.15", "unit": "%"}]}, {"smiles": "NCc1cccc2ccncc12", "note": "[8-Isoquinoline methanamine (hydrochloride)]", "values": [{"measurement": "percent Bodipy-positive cells", "setting": "[3]", "value": "8.38 ± 0.45", "unit": "%"}]}, {"smiles": "CN1CCC(=C2c3ccccc3CCc3cccnc32)CC1", "values": [{"measurement": "percent Bodipy-positive cells", "setting": "[2]", "value": "69.5 ± 0.73", "unit": "%"}]}, {"smiles": "CN1CCC(=C2c3ccccc3CCc3cccnc32)CC1", "note": "[Azatadine dimaleate]", "values": [{"measurement": "percent Bodipy-positive cells", "setting": "[1]", "value": "17 ± 6.6", "unit": "%"}, {"measurement": "percent Bodipy-positive cells", "setting": "[2]", "value": "54.3 ± 5.7", "unit": "%"}]}, {"smiles": "Nc1nc2ccc(OC(F)(F)F)cc2s1", "note": "[Riluzole hydrochloride]", "values": [{"measurement": "percent Bodipy-positive cells", "value": "43.1 ± 4.5", "unit": "%"}, {"measurement": "percent Bodipy-positive cells", "setting": "[2]", "value": "9.93 ± 1.3", "unit": "%"}]}, {"smiles": "Nc1nc2ccc(OC(F)(F)F)cc2s1", "note": "[Riluzole]", "values": [{"measurement": "percent Bodipy-positive cells", "setting": "[1]", "value": "16.7 ± 4.4", "unit": "%"}, {"measurement": "percent Bodipy-positive cells", "setting": "library stock concentration: 9.6 mM", "value": "9.99 ± 2.7", "unit": "%"}, {"measurement": "percent Bodipy-positive cells", "setting": "[2]", "value": "12.1% and 22.3%"}]}, {"smiles": "COc1ccc2c(c1)c(CC(=O)O)c(C)n2C(=O)c1ccc(Cl)cc1", "note": "[Indomethacin]", "values": [{"measurement": "percent Bodipy-positive cells", "value": "29.2 ± 2", "unit": "%"}, {"measurement": "percent Bodipy-positive cells", "setting": "[3]", "value": "6.74 ± 1.1", "unit": "%"}, {"measurement": "percent Bodipy-positive cells", "setting": "[1]", "value": "16.4 ± 1.3", "unit": "%"}, {"measurement": "percent Bodipy-positive cells", "setting": "library stock concentration: 10.4 mM", "value": "8.56 ± 1.4", "unit": "%"}, {"measurement": "percent Bodipy-positive cells", "setting": "library stock concentration: 14 mM", "value": "18.5 ± 1.9", "unit": "%"}]}, {"smiles": "CCCCC[C@H](O)/C=C/[C@H]1C(=O)C[C@H](O)[C@@H]1C/C=C\\CCCC(=O)OCC(O)CO", "note": "(some centres not stated) [Prostaglandin D2-1-glyceryl ester]", "values": [{"measurement": "percent Bodipy-positive cells", "setting": "[3]", "value": "12.6 ± 1.2", "unit": "%"}]}]}
